Measured values reported in PubChem BioAssay AID1259415 (National Center for Advancing Translational Sciences (NCATS), 2018).
In all, about 410,000 compounds went through this assay and about 18,000 (4.4%) were called active. The inconclusive results got no clear call from the source; some entries with a clear call stand among them for comparison. Rule as the data show it: active = activity change below about -60%; inconclusive = no clear call, values can overlap the other calls; inactive = above about -39%.

assay: qHTS Assay for inhibitors of the human cytomegalovirus (HCMV); details: HFF cells, HCMV-luciferase reporter, 72 h; at 57.5 µM; active compounds read low
Procedure, shortened: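 Compounds were evaluated in HFFs infected with an HCMV luciferase reporter virus (MOI 1 PFU/cell). Luciferase in lysates collected 72 h post infection served as the replication measure.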
% is scaled to controls: 0 for no effect and ±100 for the full control effect.

| SMILES | activity change, negative = inhibition |
| --- | --- |
| CCc1n[nH]c(=S)n1/N=C/c1c(C)nn(-c2ccccc2)c1Cl | inconclusive: -44.3% |
| CCOC(=O)C(CC)Sc1ccc2nnc(CCNS(=O)(=O)c3ccccc3)n2n1 (centres undefined) | active: -103% |
| C[C@H]1Cn2cnc(C(=O)N[C@@H](Cc3c[nH]c4ccccc34)C(=O)OC(C)(C)C)c2C(=O)N1 | inactive: 16% |
| O=C(/C=C/Nc1ccc(F)c(Cl)c1)c1ccccc1 | inactive: 97.7% |
| CC(C)(C)C(=O)N1N=C(c2cccc(NS(C)(=O)=O)c2)CC1c1cccs1 (centres undefined) | inconclusive: -43.1% |
| CCOC(=O)c1cnc(-c2ccccc2)nc1Oc1ccc(OC)cc1 | inconclusive: -42.9% |
| COc1ccc2cc3cc(C(=O)NCCc4ccccc4)sc3nc2c1Cl | inconclusive: -46% |
| CCOC(=O)CNC(=S)n1ncnc1N | inconclusive: -56.2% |
| COc1ccc(NC(=O)c2cc(C3CCCCN3S(=O)(=O)c3cccs3)on2)c(C)c1 (centres undefined) | inconclusive: -53.1% |
| C[C@@H]1C[C@@H]([C@H](O)CC2CC(=O)NC(=O)C2)C(=O)[C@@H](C)C1 | active: -76.1% |
| O=C(Nc1ccc(Br)cc1)c1ccc(Br)c(S(=O)(=O)N2CCCCC2)c1 | inconclusive: -43.9% |
| O=c1cc(N2CCCCC2)c(-c2ccccc2)nn1Cc1ccc(F)cc1 | inconclusive: -44% |
| Cc1cc(C(=O)CSc2cccc[n+]2[O-])c(C)n1-c1ccc(OC(F)F)cc1 | active: -72.6% |
| COC(=O)c1ccc(NC(=O)C2CCCCC2C(=O)O)cc1 (centres undefined) | inactive: 44.6% |
| CC1(C)NC(=O)N(CCCCSc2ccc(Cl)cc2)C1=O | inconclusive: -52.8% |
| Cc1cc(C)n(CC(O)Cn2c3ccc(Cl)cc3c3cc(Cl)ccc32)c(=O)n1 (centres undefined) | inconclusive: -41.8% |
| COc1cc(C)c(CN2CCC(Cc3ccccc3)CC2)cc1C | inconclusive: -41.2% |
| COc1ccc(Br)c(C(=O)OCc2cc(=O)oc3cc(C)ccc23)c1 | inactive: -29.3% |
| Cc1ccc(-n2ncc(C(=O)N3CCN(C(=O)c4ccco4)CC3)c2C2CCN(C(=O)OC(C)(C)C)CC2)cc1C | inactive: 0% |
| COc1ccc(C(=O)CCN2CCCCCC2)cc1 | inactive: 14.1% |
| O=C(NCc1ccc(F)cc1)Nc1ccc(Cl)cc1 | inconclusive: -47.4% |

| SMILES | activity change, negative = inhibition |
| --- | --- |
| CCN(C(=O)CSc1nnc(-c2ccco2)n1Cc1ccccc1)C1CCS(=O)(=O)C1 (centres undefined) | inconclusive: -41% |
| COc1cc(CNC2CCCC2)cc(Cl)c1OCc1ccccc1Cl | inconclusive: -45.3% |
| CC(C)(C)NC(=O)C(c1ccc(F)cc1)N(Cc1ccco1)C(=O)CCC(=O)Nc1ccccn1 (centres undefined) | inconclusive: -42.6% |
| COc1cccc(CNC(=O)c2ccc3c(c2)N(Cc2ccc(C(F)(F)F)cc2)C(=O)c2ccccc2S3)c1OC | inconclusive: -55% |
| Cc1ccc(Cl)cc1N(CC(=O)N1CCOCC1)S(C)(=O)=O | inactive: -7.57% |
| CC(C)c1ccc2[nH]c(O)c(N=NC(=O)c3cccc(S(=O)(=O)Nc4cccc(Cl)c4)c3)c2c1 | inconclusive: -52.9% |
| N#Cc1ccccc1S(=O)(=O)N1CCCC(c2nc3c(nnn3Cc3cccc(Cl)c3)c(=O)[nH]2)C1 (centres undefined) | inconclusive: -59.8% |
| O=C(N/N=C/c1cccc(OC(=O)c2ccccc2Cl)c1)c1cccnc1 | inconclusive: -57% |
| CN(C)c1ccc(C(CNC(=O)c2ccccc2F)N2CCc3ccccc32)cc1 (centres undefined) | inactive: -12.8% |
| Cc1c(-c2cc[n+]([O-])cc2)oc2ccc(Br)cc2c1=O | inconclusive: -56.7% |
| Cc1ccc(S(=O)(=O)N2CCN(C(=O)c3ccc(-n4cncn4)c([N+](=O)[O-])c3)CC2)c(C)c1 | inconclusive: -47.2% |
| COc1ccc(NC(=S)NC(NC(=O)c2ccccc2Cl)C(Cl)(Cl)Cl)c([N+](=O)[O-])c1 (centres undefined) | inconclusive: -44.1% |
| COc1cc(C(c2sc3nc(C)nn3c2O)N2CC(C)CC(C)C2)cc(OC)c1OC (centres undefined) | inactive: 7.81% |
| COc1ccc2nc3sc(C(=O)N4CCN(c5ccccc5)CC4)cc3cc2c1 | inactive: -3.66% |
| Nc1cc(-c2cccc(F)c2)nn1S(=O)(=O)c1cccc2nsnc12 | active: -101% |
| COc1ccc(C2C(C(=O)N3CCN(c4ccccn4)CC3)CCC(=O)N2c2cc(OC)c(OC)c(OC)c2)cc1 (centres undefined) | inconclusive: -45.2% |
| Nc1c(C(=O)Nc2ccccc2)sc2ncc([N+](=O)[O-])cc12 | inactive: -23.4% |
| CCC(OCC(O)CN1CCN(CCN2C(=O)c3cccc4cccc(c34)C2=O)CC1)c1ccccc1 (centres undefined) | inconclusive: -48.4% |
| CCc1ccccc1NC(=O)C1CC(c2ccc(F)cc2)=NO1 (centres undefined) | inconclusive: -40.9% |
| Cc1ccc(-c2nc(Nc3cccc(O)c3)c3ccccc3n2)cc1 | inconclusive: -58.7% |
| CN(C)C=NC(=O)c1cc(C(=O)c2ccc(Cl)cc2)c[nH]1 | active: -63.3% |

| SMILES | activity change, negative = inhibition |
| --- | --- |
| CCc1cccc(CC)c1N(COC)C(=O)Cn1nnc2ccccc21 | inactive: 24.7% |
| CCN(Cc1ccccc1)S(=O)(=O)c1ccc(S(=O)(=O)N(Cc2cccc(OC)c2)CC2CCCO2)cc1 (centres undefined) | inactive: -12.9% |
| O=C1NC2(CCCCC2)N=C1c1ccc(F)cc1 | active: -74.1% |
| CC(=O)n1cc(N(C(=O)CCl)c2ccc([N+](=O)[O-])cc2)c2ccccc21 | inconclusive: -55.9% |
| Cc1cc(C(=O)N/N=C/c2cccc(OC(=O)c3cccc(Br)c3)c2)n[nH]1 | active: -71.2% |
| COc1ccc(-c2n[nH]c(C)c2-c2ccc(Cl)cc2)c(O)c1OC | inconclusive: -43.6% |
| CCc1nnc(NC(=O)c2ccc(N(C)S(=O)(=O)c3ccccc3)cc2)s1 | inconclusive: -50.3% |
| COc1ccc(CN2CCNC(=O)C2CC(=O)NCc2ccc(C)s2)c(OC)c1 (centres undefined) | inconclusive: -48.5% |
| CC(C)c1ccc2[nH]c3c(c2c1)CCCC3=O | inactive: 37.7% |
| COCCn1c(=NC(=O)c2cc(-c3cccs3)nc3ccccc23)sc2cc(S(N)(=O)=O)ccc21 | inactive: 41.7% |
| CCOc1ccc(CCNC(=O)Cc2ccc(NC(=O)N3CCSc4ncccc43)cc2)cc1 | inconclusive: 0% |
| CC(C)(C)NC(=O)Nc1ccc(F)c(Cl)c1 | inconclusive: -41.5% |
| CCOc1ccc(NS(=O)(=O)c2ccc(C(=O)N3CCCCCC3)cc2)cc1 | inconclusive: -40.5% |
| CN(C(=O)c1oc(=O)c2ccccc2c1-c1ccccc1)c1cccc(Cl)c1 | inactive: -19.9% |
| CCCn1c(=O)c2sccc2n2c(CCCC(=O)Nc3ccccc3F)nnc12 | inconclusive: -56.9% |
| CCCCN(Cc1cccs1)S(=O)(=O)c1ccc(-c2ccc(=O)[nH]n2)s1 | active: -68.1% |
| O=S(=O)(c1ccc(NC(=S)NCc2ccc(F)cc2)cc1)N1CCOCC1 | inconclusive: -48% |
| C/C(=N\NC(=S)NCc1ccccc1)c1ccc(Cl)s1 | inconclusive: -40.8% |
| NC1=NC(=Nc2cccc(S(=O)(=O)N3CCOCC3)c2)c2ccccc21 | inconclusive: -52.3% |
| O=C(Nc1ccc2oc(-c3cc(Br)ccc3Cl)nc2c1)c1ccc2ccccc2c1 | active: -93.5% |
| O=C(CN(Cc1ccccc1)S(=O)(=O)c1ccc(S(=O)(=O)N2CCOCC2)cc1)Nc1ccccc1 | inconclusive: -46.9% |

| SMILES | activity change, negative = inhibition |
| --- | --- |
| CCS(=O)(=O)c1ccc2oc(SCC(=O)NC34CC5CC(CC(C5)C3)C4)nc2c1 | inconclusive: -47.5% |
| CCc1noc(C)c1C(=O)N1CC(C)SC1=Nc1ccc(Cl)cc1 (centres undefined) | inactive: -25.8% |
| CC(C)CC(NC(=O)CCl)c1ccccc1 (centres undefined) | inconclusive: -43.7% |
| CCCCC[C@@H]1C=C(C(=O)OCC)[C@H](c2ccccc2)N1S(=O)(=O)c1ccc(C)cc1 | inconclusive: -56.5% |
| O=C(COC(=O)c1cc(Br)ccc1Cl)NC1CC1 | inconclusive: -52% |
| CCCOC(=O)Cn1c(=O)c2cc3c(=O)n(CC(=O)OCCC)c(=O)c3cc2c1=O | active: -72.5% |
| O=C(NCCc1ccccc1)c1ccc(=O)[nH]c1 | inactive: 53.3% |
| CCOC(=O)c1ccc(N2CN(CCc3ccccc3)CNC2=S)cc1 | inconclusive: -45% |
| CSc1nc2ncc(C(=O)O)c(N)n2n1 | inconclusive: -53% |
| Fc1cccc(CCN2C(=S)NC[C@@H]2CC2CCCCC2)c1 | inconclusive: -44.2% |
| CCc1cc(-c2n[nH]c(=S)n2CC(C)C)cs1 | inconclusive: -53.7% |
| Cc1ccc(C(=O)N2CCN(c3ccc(C(F)(F)F)cn3)CC2)o1 | inactive: -34.4% |
| CCOc1ccc(-c2cc(N3C(=O)Nc4ccccc4N3O)n[nH]2)cc1 | inconclusive: -47.4% |
| CCn1c(Oc2ccc(F)cc2)nc2c1c(=O)n(C)c(=O)n2C | inconclusive: -48.6% |
| CC[C@]12c3[nH]c4ccc(Cl)cc4c3CCN1C(=O)[C@@H](CC(=O)NCC13CC4CC(CC(C4)C1)C3)C[C@@H]2C(=O)N1CCN(C(=O)C2CC2)CC1 | inactive: -26.3% |
| COc1ccc(NC(=O)c2sc3nc4c(cc3c2N)CCCCCC4)cc1Cl | inconclusive: -53.7% |
| OCCC1CN(Cc2cccn2-c2nccs2)CCN1C1CCCCC1 (centres undefined) | inconclusive: -40.2% |
| CCOc1ccc(CC(=O)OCn2nnc3ccccc3c2=O)cc1 | inactive: -9.59% |
| CCSc1ccc(-c2cc(NC=O)c3ncc(-c4cccc(C(=O)NCCN(C)C)c4)n3c2)cc1 | inactive: -21.2% |
| Clc1ccc(-c2nnc3n2CCCCS3)cc1 | inconclusive: -50.2% |
| Cc1ccc(-n2nnnc2-c2cnn(-c3cccc(F)c3)c2C(F)(F)F)cc1 | active: -75.3% |
